# In the supplement of paper PMC10849652:
# Protein sequences, listed by entry. Tags and fused reporters are not part of them. Lines headed by an entry give the natural chain unless they say otherwise; changes in a name come on top.
# UniProt Q9H8H3: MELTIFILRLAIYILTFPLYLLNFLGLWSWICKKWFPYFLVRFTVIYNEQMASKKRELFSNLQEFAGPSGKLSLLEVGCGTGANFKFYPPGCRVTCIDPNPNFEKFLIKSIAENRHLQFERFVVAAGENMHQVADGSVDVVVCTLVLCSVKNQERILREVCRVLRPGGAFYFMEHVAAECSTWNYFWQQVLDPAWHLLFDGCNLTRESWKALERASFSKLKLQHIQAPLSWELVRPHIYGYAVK
# UniProt Q68D91: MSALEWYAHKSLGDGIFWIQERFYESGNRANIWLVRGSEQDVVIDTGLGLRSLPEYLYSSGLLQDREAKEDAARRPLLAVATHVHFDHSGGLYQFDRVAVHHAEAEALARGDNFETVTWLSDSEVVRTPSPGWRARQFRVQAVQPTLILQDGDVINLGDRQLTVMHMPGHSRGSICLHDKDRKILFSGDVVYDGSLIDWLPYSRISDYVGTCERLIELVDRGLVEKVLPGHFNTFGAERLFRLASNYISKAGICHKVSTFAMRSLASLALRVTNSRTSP
# UniProt Q14676: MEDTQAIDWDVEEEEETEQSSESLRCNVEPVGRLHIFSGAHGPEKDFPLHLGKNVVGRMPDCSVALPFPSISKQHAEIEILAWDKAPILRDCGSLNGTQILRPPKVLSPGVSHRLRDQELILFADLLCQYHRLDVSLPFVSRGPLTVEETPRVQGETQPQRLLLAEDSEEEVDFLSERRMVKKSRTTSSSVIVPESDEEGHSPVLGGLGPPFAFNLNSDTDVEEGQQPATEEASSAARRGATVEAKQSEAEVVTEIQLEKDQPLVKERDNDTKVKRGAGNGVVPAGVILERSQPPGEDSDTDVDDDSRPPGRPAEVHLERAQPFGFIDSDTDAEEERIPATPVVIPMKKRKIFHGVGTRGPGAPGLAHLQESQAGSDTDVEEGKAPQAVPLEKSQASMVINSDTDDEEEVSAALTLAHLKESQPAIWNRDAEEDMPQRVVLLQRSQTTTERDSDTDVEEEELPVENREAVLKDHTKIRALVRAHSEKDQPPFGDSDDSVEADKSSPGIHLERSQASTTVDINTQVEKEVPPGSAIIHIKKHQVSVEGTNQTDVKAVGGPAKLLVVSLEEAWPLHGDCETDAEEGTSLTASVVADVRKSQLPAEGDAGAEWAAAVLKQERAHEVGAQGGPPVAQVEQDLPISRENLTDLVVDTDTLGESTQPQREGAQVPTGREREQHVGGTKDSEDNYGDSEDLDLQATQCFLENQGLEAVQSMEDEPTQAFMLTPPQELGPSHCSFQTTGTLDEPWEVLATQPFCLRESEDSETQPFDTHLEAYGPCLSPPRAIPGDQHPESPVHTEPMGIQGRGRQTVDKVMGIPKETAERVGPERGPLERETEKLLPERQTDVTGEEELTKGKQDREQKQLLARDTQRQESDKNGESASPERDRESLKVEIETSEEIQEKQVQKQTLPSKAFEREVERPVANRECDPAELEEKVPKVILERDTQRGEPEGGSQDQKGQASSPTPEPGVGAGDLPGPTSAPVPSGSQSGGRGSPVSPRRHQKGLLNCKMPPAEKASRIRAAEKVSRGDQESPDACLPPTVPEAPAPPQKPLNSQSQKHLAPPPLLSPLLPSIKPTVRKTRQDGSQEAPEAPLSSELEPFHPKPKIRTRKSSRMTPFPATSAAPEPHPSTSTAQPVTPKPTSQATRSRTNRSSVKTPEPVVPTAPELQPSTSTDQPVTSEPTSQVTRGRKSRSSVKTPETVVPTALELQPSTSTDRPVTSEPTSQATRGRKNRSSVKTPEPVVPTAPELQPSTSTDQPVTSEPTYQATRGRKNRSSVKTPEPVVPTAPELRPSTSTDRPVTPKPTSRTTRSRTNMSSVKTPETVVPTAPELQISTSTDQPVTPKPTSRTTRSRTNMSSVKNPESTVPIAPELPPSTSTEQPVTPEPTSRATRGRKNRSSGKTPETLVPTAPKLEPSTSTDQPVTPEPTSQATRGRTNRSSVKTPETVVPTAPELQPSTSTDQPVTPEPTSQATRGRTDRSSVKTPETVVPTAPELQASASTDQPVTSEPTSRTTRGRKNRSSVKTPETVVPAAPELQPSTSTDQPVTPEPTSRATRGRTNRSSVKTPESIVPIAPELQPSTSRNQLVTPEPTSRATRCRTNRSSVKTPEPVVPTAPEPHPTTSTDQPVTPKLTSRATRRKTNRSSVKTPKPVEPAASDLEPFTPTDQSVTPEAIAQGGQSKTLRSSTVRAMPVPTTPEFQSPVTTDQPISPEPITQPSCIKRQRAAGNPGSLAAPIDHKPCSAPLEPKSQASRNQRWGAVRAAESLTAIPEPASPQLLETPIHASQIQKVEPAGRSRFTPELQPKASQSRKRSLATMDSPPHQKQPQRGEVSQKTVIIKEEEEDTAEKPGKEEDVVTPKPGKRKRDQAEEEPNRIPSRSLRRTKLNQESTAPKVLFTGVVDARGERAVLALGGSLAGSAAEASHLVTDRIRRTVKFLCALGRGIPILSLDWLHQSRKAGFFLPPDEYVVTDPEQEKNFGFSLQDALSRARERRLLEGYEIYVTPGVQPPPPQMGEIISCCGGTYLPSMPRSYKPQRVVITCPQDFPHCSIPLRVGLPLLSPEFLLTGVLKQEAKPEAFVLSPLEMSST
# UniProt Q9UHV7: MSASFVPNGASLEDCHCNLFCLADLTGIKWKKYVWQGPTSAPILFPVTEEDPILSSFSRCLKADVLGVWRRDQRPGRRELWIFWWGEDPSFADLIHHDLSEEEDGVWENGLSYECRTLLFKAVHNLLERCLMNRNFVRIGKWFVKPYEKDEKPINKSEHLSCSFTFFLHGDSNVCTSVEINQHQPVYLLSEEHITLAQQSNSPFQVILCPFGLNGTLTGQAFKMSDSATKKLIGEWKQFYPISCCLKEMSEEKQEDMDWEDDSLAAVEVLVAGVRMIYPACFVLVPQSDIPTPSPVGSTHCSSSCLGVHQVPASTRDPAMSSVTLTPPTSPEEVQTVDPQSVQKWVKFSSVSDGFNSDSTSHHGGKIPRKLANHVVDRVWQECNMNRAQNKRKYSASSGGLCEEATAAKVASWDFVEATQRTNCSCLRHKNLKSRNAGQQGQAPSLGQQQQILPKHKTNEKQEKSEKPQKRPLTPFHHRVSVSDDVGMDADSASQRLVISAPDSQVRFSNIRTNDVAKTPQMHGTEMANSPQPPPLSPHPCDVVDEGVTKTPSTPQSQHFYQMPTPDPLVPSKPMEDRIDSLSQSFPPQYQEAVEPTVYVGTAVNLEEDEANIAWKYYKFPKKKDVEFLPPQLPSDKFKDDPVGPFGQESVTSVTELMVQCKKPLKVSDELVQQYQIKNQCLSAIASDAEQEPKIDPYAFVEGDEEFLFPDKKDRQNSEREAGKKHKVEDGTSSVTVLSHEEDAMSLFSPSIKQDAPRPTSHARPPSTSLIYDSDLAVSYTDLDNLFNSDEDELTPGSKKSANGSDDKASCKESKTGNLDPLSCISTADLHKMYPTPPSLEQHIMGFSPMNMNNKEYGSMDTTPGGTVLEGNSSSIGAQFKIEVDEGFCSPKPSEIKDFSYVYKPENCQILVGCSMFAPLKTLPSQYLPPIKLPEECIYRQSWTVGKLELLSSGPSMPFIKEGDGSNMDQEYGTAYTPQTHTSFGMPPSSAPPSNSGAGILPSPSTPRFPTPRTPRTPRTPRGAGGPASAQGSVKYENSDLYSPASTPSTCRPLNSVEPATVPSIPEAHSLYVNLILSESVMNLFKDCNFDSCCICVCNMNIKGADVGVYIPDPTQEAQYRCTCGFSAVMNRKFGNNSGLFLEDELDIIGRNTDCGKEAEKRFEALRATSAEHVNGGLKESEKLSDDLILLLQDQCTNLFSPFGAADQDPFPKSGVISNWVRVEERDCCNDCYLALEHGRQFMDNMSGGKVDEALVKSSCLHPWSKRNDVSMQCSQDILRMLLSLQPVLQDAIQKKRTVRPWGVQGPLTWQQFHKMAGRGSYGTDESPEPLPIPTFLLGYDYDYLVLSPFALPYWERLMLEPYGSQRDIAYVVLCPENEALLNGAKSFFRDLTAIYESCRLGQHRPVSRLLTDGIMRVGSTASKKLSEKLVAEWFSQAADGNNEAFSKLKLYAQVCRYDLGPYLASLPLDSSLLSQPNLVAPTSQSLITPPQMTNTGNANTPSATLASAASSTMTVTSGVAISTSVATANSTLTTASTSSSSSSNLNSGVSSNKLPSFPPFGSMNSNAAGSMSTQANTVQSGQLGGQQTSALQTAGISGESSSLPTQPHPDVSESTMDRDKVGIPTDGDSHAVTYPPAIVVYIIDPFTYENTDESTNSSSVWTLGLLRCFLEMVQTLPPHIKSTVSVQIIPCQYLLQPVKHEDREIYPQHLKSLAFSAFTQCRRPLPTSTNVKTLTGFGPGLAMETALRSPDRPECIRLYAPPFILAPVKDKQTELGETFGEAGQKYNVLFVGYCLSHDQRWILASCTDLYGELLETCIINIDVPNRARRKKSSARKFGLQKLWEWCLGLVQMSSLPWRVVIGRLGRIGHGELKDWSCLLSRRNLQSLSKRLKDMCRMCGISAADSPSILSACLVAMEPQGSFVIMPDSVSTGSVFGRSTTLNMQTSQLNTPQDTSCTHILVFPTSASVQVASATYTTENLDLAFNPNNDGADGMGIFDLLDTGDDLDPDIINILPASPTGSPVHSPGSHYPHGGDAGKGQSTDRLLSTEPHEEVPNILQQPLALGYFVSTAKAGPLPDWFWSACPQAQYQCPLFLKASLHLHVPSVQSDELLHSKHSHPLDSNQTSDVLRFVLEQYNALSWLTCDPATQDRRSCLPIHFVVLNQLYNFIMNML
# UniProt Q7L2J0: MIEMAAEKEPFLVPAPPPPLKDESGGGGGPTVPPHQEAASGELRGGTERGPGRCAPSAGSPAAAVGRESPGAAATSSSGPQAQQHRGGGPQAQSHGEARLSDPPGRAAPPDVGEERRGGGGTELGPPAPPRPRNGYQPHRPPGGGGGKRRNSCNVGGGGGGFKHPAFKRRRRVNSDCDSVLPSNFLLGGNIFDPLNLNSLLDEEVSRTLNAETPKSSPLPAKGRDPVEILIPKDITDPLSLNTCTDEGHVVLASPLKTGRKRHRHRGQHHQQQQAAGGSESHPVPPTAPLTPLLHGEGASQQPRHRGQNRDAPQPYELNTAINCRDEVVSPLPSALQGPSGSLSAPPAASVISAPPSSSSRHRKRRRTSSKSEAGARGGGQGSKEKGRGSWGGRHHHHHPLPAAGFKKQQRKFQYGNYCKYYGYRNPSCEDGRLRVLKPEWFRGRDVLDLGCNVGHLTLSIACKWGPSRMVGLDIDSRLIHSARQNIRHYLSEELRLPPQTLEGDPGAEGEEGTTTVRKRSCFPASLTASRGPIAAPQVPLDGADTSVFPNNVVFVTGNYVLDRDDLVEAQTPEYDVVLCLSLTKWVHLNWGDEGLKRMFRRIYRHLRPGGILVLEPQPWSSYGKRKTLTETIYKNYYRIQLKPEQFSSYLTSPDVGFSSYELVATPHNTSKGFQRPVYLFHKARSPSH
# UniProt Q02078: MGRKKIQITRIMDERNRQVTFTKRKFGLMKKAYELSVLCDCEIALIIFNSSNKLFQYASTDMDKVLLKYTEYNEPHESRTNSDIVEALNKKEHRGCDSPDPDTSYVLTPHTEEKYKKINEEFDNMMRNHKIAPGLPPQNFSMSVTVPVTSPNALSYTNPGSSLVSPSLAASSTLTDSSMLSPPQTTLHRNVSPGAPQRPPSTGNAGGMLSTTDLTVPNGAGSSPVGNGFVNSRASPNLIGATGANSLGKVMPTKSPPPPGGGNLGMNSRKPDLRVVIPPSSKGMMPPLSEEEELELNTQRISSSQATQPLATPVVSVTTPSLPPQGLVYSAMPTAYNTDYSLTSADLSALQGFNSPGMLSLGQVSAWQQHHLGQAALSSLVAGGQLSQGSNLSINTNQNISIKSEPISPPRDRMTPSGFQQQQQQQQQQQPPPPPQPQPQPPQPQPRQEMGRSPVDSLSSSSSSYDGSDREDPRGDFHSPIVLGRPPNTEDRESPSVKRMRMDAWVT
# UniProt Q9Y6X3: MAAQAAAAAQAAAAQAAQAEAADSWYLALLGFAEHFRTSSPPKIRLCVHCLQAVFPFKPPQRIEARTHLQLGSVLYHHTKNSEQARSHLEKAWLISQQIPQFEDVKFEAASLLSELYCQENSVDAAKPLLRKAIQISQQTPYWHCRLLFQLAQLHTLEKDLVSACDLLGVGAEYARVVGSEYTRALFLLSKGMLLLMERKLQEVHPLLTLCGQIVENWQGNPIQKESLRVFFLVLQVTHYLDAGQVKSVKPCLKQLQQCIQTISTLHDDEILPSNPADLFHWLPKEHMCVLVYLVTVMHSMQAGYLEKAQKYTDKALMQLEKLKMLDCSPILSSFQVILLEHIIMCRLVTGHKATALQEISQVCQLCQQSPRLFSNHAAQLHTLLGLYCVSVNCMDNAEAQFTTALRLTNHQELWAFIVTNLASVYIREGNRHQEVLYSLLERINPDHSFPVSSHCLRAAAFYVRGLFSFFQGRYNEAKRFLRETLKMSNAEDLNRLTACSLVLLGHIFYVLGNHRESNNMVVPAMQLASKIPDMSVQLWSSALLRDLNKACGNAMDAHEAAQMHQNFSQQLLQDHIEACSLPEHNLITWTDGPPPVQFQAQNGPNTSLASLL
# The list shows a part of the results.
# Compound: Cc1sc2c(c1C)C(c1ccc(Cl)cc1)=N[C@@H](CC(=O)OC(C)(C)C)c1nnc(C)n1-2
# Assay: log2 fold change, soluble protein after heating vs DMSO (PISA); higher = thermal stabilisation; K562 lysate, 10 uM; active = over 0.2 and 3.5 SD of the protein, either way, in both replicates (recomputed)
# Outline: (§1)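 Soluble protein was defined as the supernatant remaining after 21,000xg for 90 min, following pooling of heated aliquots and adjustment to 0.5% NP-40 at 4°C. Before that, crude K562 extract at 1 mg/mL protein in PBS pH 7.4 with 1 mM MgCl2 was treated with 10 μM compound for 30 min and heated for 3 min across 48°C-58°C. Quantification used TMTpro 16plex LC-MS/MS with channel sums equalised, and values are log-two fold changes in thermal stability relative to solvent controls from duplicates.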
row,Target,log2 fold change
1,METTL7A (UniProt Q9H8H3),inactive: -0.008
2,MBLAC2 (UniProt Q68D91),inactive: 0.013
3,MED10 (UniProt Q9BTT4),inactive: 0.015
4,MED18 (UniProt Q9BUE0),inactive: 0
5,MEGF9 (UniProt Q9H1U4),inactive: 0.013
6,METTL18 (UniProt O95568),inactive: -0.035
7,MDC1 (UniProt Q14676),inactive: -0.021
8,METTL26 (UniProt Q96S19),inactive: -0.004
9,MED13 (UniProt Q9UHV7),inactive: -0.01
10,MBD2 (UniProt Q9UBB5),inactive: 0.065
11,ME2 (UniProt P23368),inactive: 0.071
12,MED7 (UniProt O43513),inactive: 0.007
13,MED30 (UniProt Q96HR3),inactive: -0.022
14,METTL6 (UniProt Q8TCB7),inactive: 0.013
15,MCM3 isoform 2 (UniProt P25205),inactive: 0.028
16,MEMO1 (UniProt Q9Y316),inactive: 0.038

row,Target,log2 fold change
1,MED12 isoform 2 (UniProt Q93074),inactive: 0.042
2,METTL16 (UniProt Q86W50),inactive: 0.013
3,MED22 isoform 2 (UniProt Q15528),inactive: 0.011
4,MEPCE (UniProt Q7L2J0),inactive: 0.031
5,MED31 (UniProt Q9Y3C7),inactive: 0.029
6,MCM4 (UniProt P33991),inactive: -0.037
7,MED24 (UniProt O75448),inactive: 0.019
8,MECR (UniProt Q9BV79),inactive: -0.048
9,MBTPS1 (UniProt Q14703),inactive: -0.063
10,MED16 (UniProt Q9Y2X0),inactive: 0.001
11,MED1 (UniProt Q15648),inactive: -0.017
12,MED23 (UniProt Q9ULK4),inactive: -0.016
13,MBNL1 (UniProt C9JP00),inactive: 0.011
14,MCEE (UniProt Q96PE7),inactive: -0.183
15,MED20 (UniProt Q9H944),inactive: 0.044

# Compound: c1ccc([C@@H]2C[C@H]2NC2CCNCC2)cc1
# Assay: as above
# Outline: as §1
row,Target,log2 fold change
1,METTL7A (UniProt Q9H8H3),inactive: -0.074
2,MBLAC2 (UniProt Q68D91),inactive: -0.033
3,MED10 (UniProt Q9BTT4),inactive: -0.009
4,MED18 (UniProt Q9BUE0),inactive: 0.003
5,MEGF9 (UniProt Q9H1U4),inactive: 0.161
6,METTL18 (UniProt O95568),inactive: -0.077
7,MDC1 (UniProt Q14676),inactive: 0.026
8,METTL26 (UniProt Q96S19),inactive: -0.053
9,MELTF (UniProt P08582),inactive: 0.032
10,MCRS1 isoform 2 (UniProt Q96EZ8),inactive: 0.065
11,MEF2A isoform 2 (UniProt Q02078),inactive: -0.022
12,MED13 (UniProt Q9UHV7),inactive: 0.074
13,MDM2 isoform 11 (UniProt Q00987),inactive: -0.158
14,MBD2 (UniProt Q9UBB5),inactive: 0.027
15,ME2 (UniProt P23368),inactive: -0.009
16,MED7 (UniProt O43513),inactive: -0.011
17,MFSD8 (UniProt Q8NHS3),inactive: -0.069
18,MED30 (UniProt Q96HR3),inactive: -0.016
19,METTL6 (UniProt Q8TCB7),inactive: -0.043

row,Target,log2 fold change
1,MCM3 isoform 2 (UniProt P25205),inactive: 0.015
2,MEMO1 (UniProt Q9Y316),inactive: 0.021
3,MED12 isoform 2 (UniProt Q93074),inactive: 0.031
4,METTL16 (UniProt Q86W50),inactive: 0.008
5,MED22 isoform 2 (UniProt Q15528),inactive: 0.014
6,MAU2 (UniProt Q9Y6X3),inactive: 0.169
7,MEPCE (UniProt Q7L2J0),inactive: 0.018
8,MED31 (UniProt Q9Y3C7),inactive: -0.029
9,MCM4 (UniProt P33991),inactive: 0.055
10,MED24 (UniProt O75448),inactive: -0.007
11,MECR (UniProt Q9BV79),inactive: 0.005
12,MED26 (UniProt O95402),inactive: -0.076
13,MBTPS1 (UniProt Q14703),inactive: 0.017
14,MED16 (UniProt Q9Y2X0),inactive: 0.087
15,MED1 (UniProt Q15648),inactive: 0.003
16,MED23 (UniProt Q9ULK4),inactive: 0.048
17,MBNL1 (UniProt C9JP00),inactive: 0.088
18,MCEE (UniProt Q96PE7),inactive: 0.063
19,MED20 (UniProt Q9H944),inactive: 0.012
